Reference: patent EP1891105B1, “OXYNTOMODULIN ANALOGUES AND THEIR EFFECTS ON FEEDING BEHAVIOUR” (Imperial Innovations Limited, priority 2005, dated 2012)
At least one peptide structure holds a part that was inferred or is arguable (an end, a ring closure or a residue). Non-standard residues stand in square brackets, D forms with d. Residues, ends and D or L forms follow the SMILES beside them.

Test: Food intake of fasted mice after injection of peptide
Assay type: in vivo, C57BL/6 mice
Description: Animals: All animal procedures were approved by the British Home Office Animals (Scientific Procedures) Act 1986 (Project License number 70/5516). Male C57BL/6 mice and male Wistar rats were maintained in individual cages under controlled temperature (21-23 °C) with ad libitum access to standard chow (RM1 diet, SDS Ltd, Witham, Essex, UK) and to water. The light cycle was 14 hours light and 10 hours dark with 'dawn' at 07:00, lights full on at 07:30, 'dusk' at 21:00 with lights off at 21:30. These times were fixed in the animal facility.
All animals were handled almost daily for on average nine days prior to the first study. During the acclimatization period, each animal received two saline injections at least two days apart in order to further acclimatize to the procedure on the study days.
Intra-peritoneal (IP) injections: IP injections were administered to mice via a 0.5 ml syringe with a 29-gauge needle (maximum injection volume 0.1 ml). Maximum volume administered IP was 0.1 ml.
Study protocol: C57BL/6 mice (20-35 g) were injected with the peptide under investigation following a 20-hour fast Wistar rats were injected following a 24-hour fast. A pre-weighed quantity of chow was presented immediately after injection. The remaining food was measured at regular time intervals (e.g. 1, 2, 3,4, 6, 8, 24 and 48 hours following injection) and food intake calculated.

| Structure (SMILES) | food intake (Example 13, 1000 nmol/kg, 0-4 h, cumulative) | food intake (Example 7, 1000 nmol/kg, 0-24 h) |
| --- | --- | --- |
| CC(C)C[C@H](NC(=O)[C@H](Cc1ccc(O)cc1)NC(=O)[C@H](CCCCN)NC(=O)[C@H](CO)NC(=O)[C@H](Cc1ccc(O)cc1)NC(=O)[C@H](CC(=O)O)NC(=O)[C@H](CO)NC(=O)[C@@H](NC(=O)[C@H](Cc1ccccc1)NC(=O)[C@@H](NC(=O)CNC(=O)[C@H](CCC(N)=O)NC(=O)[C@H](CO)NC(=O)[C@H](N)Cc1c[nH]cn1)[C@@H](C)O)[C@@H](C)O)C(=O)N[C@@H](CC(=O)O)C(=O)N[C@@H](CO)C(=O)N[C@@H](CCCNC(=N)N)C(=O)N[C@@H](CCCNC(=N)N)C(=O)N[C@@H](C)C(=O)N[C@@H](CCC(N)=O)C(=O)N[C@@H](CC(=O)O)C(=O)N[C@@H](Cc1ccccc1)C(=O)N[C@H](C(=O)N[C@@H](CCC(N)=O)C(=O)N[C@@H](Cc1c[nH]c2ccccc12)C(=O)N[C@@H](CC(C)C)C(=O)N[C@@H](CCCCN)C(=O)N[C@@H](CC(N)=O)C(=O)NCC(=O)NCC(=O)N1CCC[C@H]1C(=O)N[C@@H](CO)C(=O)N[C@@H](CO)C(=O)NCC(=O)N[C@@H](C)C(=O)N1CCC[C@H]1C(=O)N1CCC[C@H]1C(=O)N1CCC[C@H]1C(=O)N[C@@H](CO)C(=O)O)C(C)C [D-His-oxm26ex] (H-[dH]SQGTFTSDYSKYLDSRRAQDFVQWLKNGGPSSGAPPPS-OH) | reduction in food intake in comparison to oxm26ex |  |
| CC(C)C[C@H](NC(=O)[C@H](Cc1ccc(O)cc1)NC(=O)[C@H](CCCCN)NC(=O)[C@H](CO)NC(=O)[C@H](Cc1ccc(O)cc1)NC(=O)[C@H](CC(=O)O)NC(=O)[C@H](CO)NC(=O)[C@@H](NC(=O)[C@H](Cc1ccccc1)NC(=O)[C@@H](NC(=O)CNC(=O)[C@H](CCC(N)=O)NC(=O)[C@H](CO)NC(=O)[C@@H](N)Cc1c[nH]cn1)[C@@H](C)O)[C@@H](C)O)C(=O)N[C@@H](CC(=O)O)C(=O)N[C@@H](CO)C(=O)N[C@@H](CCCNC(=N)N)C(=O)N[C@@H](CCCNC(=N)N)C(=O)N[C@@H](C)C(=O)N[C@@H](CCC(N)=O)C(=O)N[C@@H](CC(=O)O)C(=O)N[C@@H](Cc1ccccc1)C(=O)N[C@H](C(=O)N[C@@H](CCC(N)=O)C(=O)N[C@@H](Cc1c[nH]c2ccccc12)C(=O)N[C@@H](CC(C)C)C(=O)N[C@@H](CCCCN)C(=O)N[C@@H](CC(N)=O)C(=O)NCC(=O)NCC(=O)N1CCC[C@H]1C(=O)N[C@@H](CO)C(=O)N[C@@H](CO)C(=O)NCC(=O)N[C@@H](C)C(=O)N1CCC[C@H]1C(=O)N1CCC[C@H]1C(=O)N1CCC[C@H]1C(=O)N[C@@H](CO)C(=O)O)C(C)C [oxm26ex] (H-HSQGTFTSDYSKYLDSRRAQDFVQWLKNGGPSSGAPPPS-OH) |  | not as long-lasting as those of exendin |
